For two substances, binding results are on record in patent US20250115889A1 (DENTERIC, published 2025).

Assay [1] concerns the target rABM21-PNPFA (Porphyromonas gingivalis W50) (UniProt Q51817). Kind of assay: Native PAGE without DTT; self-association (ability to form multimers).
Assay [2] deals with rABM21-PSPYQ (Porphyromonas gingivalis W50) (UniProt Q51817). The description is as above.

No constants are given. Whether binding was seen depends on the method and setting. Some entries that bind do so weakly or less than the wild type.

Take “rABM21-PNPFA (from UniProt Q51817 885-970)”: the binding result in assay [1] is “binds”.
In the case of “rABM21-PSPYQ (from UniProt Q51817 885-970)”, in assay [2], the binding entry is reported as “binds”.
